Reference: PubChem BioAssay AID504444 (National Center for Advancing Translational Sciences (NCATS), 2011)
Out of some 360,000 compounds screened, about 7,500 (2.1%) were called active. This list was built around the results that the source calls inconclusive (neither active nor inactive); the mix of calls is not that of the screen. Calls follow the shape of the dose curve; as a rule, active = well fitted inhibition curve with a large enough effect; inconclusive = small, poorly fitted or top-dose-only effect, or effect the other way; inactive = flat fitted curve, though single readings scatter. A potency beside an inconclusive call is a rough fit, not a confirmed value.

Test: Nrf2 qHTS screen for inhibitors; also: nearly all actives have a fitted effect of over 60% in size
Conditions: A549 ARE-Fluc reporter, luciferase luminescence, 18-24 h; series mostly up to 46 µM
In short: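 Two sequential reads on A549 ARE_Fluc cells exposed to compound for 18-24 h: a CellTiter-Fluor fluorescence read for viability, then a luciferase luminescence read for Nrf2/ARE activity.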
Potency is read from the fitted curve at half-maximal effect.

Row | Structure (SMILES) | Potency
1 | C[C@H](NC(=O)Cn1cncn1)c1ccccc1 | inconclusive: 0.058 µM [falling, full curve]
2 | Clc1ccccc1C1Nc2cccc3cccc(c23)N1 | inactive
3 | Cc1cccc(NC(=O)c2sc(NC(=O)c3ccco3)c(C#N)c2C)c1C | inconclusive: 9.2 µM [falling, partial curve, poor fit]
4 | CCCN1C(=O)/C(=c2\sc3nc(=O)c(Cc4ccc(C)cc4)nn3c2=O)c2ccccc21 | inactive
5 | CCCNC(=O)c1ccc(N2CCC3(CC2)CC(c2cccc(Br)c2)=NO3)c([N+](=O)[O-])c1 | inconclusive: 20.6 µM [falling, single point]
6 | Fc1cccc(/C=N/Nc2ccccn2)c1 | inconclusive: 13 µM [activator, partial curve]
7 | N#Cc1cccc(-c2nnc(SCc3ccccc3C#N)o2)c1 | inconclusive: 1.84 µM [activator, partial curve]
8 | COc1ccc2nnc(-c3ccccc3)n2n1 | inconclusive: 0.206 µM [falling, full curve, poor fit]
9 | Cc1cc2c(s1)c1cnn(Cc3c(F)ccc(F)c3Cl)c(=O)c1n2C | inactive
10 | O=c1c2ccccc2nc(SCc2nnc(-c3ccccc3Br)o2)n1Cc1ccco1 | inconclusive: 16.4 µM [falling, partial curve]
11 | CC(=O)Nc1cccc(C(=O)OCC(=O)c2ccccc2Cl)c1 | inconclusive: 7.31 µM [activator, partial curve]
12 | CCOC(=O)/C(C#N)=C/Nc1ccccc1OC | inconclusive: 18.4 µM [activator, partial curve]
13 | CC(C)Cc1nc(NCCN2CCOCC2)c(C#N)c2c1COC(C)(C)C2 | inactive
14 | COc1ccc(OCCN2CCN(C(=O)c3ccc(OC(F)F)c(OC)c3)CC2)cc1 | inconclusive: 29.1 µM [falling, single point]
15 | Cc1cccc(C)c1N=C1C(=O)Nc2ccccc21 | active: 18.4 µM
16 | CC(=O)N1N=C(c2ccc(C(C)(C)C)cc2)OC1(C)C | inactive
17 | COCCn1c(C)cc(C2=NNC(=Nc3ccccc3F)SC2)c1C | inconclusive: 2.59 µM [falling, full curve, poor fit]
18 | CS/C(=N\S(=O)(=O)c1ccc(Cl)cc1)c1ccccc1 | inconclusive: 29.1 µM [falling, partial curve, poor fit]
19 | COc1cc(/C=C(\CC(=O)O)c2nc3ccccc3s2)ccc1OCC(=O)Nc1ccccc1F | inactive
20 | O=C(CCN1C(=O)/C(=C/c2ccccc2F)SC1=S)NCCCN1CCOCC1 | inconclusive: 20.6 µM [activator, single point]
21 | Nc1nc(SC2c3cccc4cccc(c34)C2NS(=O)(=O)c2ccccc2)n[nH]1 (centres undefined) | inactive
22 | Cc1ccc(/C=N/NC(=O)c2ccncc2)cc1 | inconclusive: 25.9 µM [activator, partial curve, poor fit]

Grouped by structure, the entries above with a thiophene ring, fused or not
Row | Structure (SMILES) | Potency
3 | Cc1cccc(NC(=O)c2sc(NC(=O)c3ccco3)c(C#N)c2C)c1C | inconclusive: 9.2 µM [falling, partial curve, poor fit]
9 | Cc1cc2c(s1)c1cnn(Cc3c(F)ccc(F)c3Cl)c(=O)c1n2C | inactive

(list continues)

Row | Structure (SMILES) | Potency
23 | FC(F)(F)c1ccc2c(c1)C1C=CCC1C(c1ccncc1)N2 (centres undefined) | inconclusive: 16.4 µM [falling, partial curve, poor fit]
24 | Cc1ccc(NC(=O)c2nc(S(=O)(=O)Cc3ccccc3)ncc2Cl)cc1 | inactive
25 | COCCCN(C(=O)c1cc2c(s1)CCCCC2)c1c(N)n(Cc2ccccc2)c(=O)[nH]c1=O | inconclusive: 16.4 µM [falling, partial curve, poor fit]
26 | C/C(=N\NC(=O)c1cccnc1)c1ccccc1 | inconclusive: 18.4 µM [activator, single point]
27 | COc1ccccc1CNc1ccc(-c2nc(-c3cccc(C)c3)no2)cc1[N+](=O)[O-] | inconclusive: 14.6 µM [activator, partial curve, poor fit]
28 | CCn1nc(C(=O)Nc2nc3ccc(C)cc3s2)c2ccccc2c1=O | inconclusive: 16.4 µM [activator, partial curve]
29 | Cc1cc2ccccc2nc1Br | inconclusive: 0.0041 µM [activator, full curve, poor fit]
30 | O=C1COc2ccc(S(=O)(=O)N3CCN(c4ccccc4F)CC3)cc2N1 | inconclusive: 20.6 µM [falling, partial curve, poor fit]
31 | CCOc1ccccc1NC(=O)C1=C(C)NC(=O)NC1c1cccc(OC)c1OC (centres undefined) | inconclusive: 0.0651 µM [falling, full curve, poor fit]
32 | CCOc1ccccc1N1CC(c2nc3ccccc3n2CCCCOc2cc(C)ccc2C)CC1=O (centres undefined) | inconclusive: 25.9 µM [falling, single point]
33 | COc1ccc(-n2nc(C(=O)NCc3ccc(F)cc3)c3c4ccccc4n(C)c3c2=O)cc1 | inactive
34 | Nc1nc(NCCOCCO)nc(N2CCCCCC2)c1[N+](=O)[O-] | inconclusive: 11.6 µM [falling, partial curve]
35 | COc1ccc(Cl)cc1NC(=O)C(C)N1CCN(c2ccccn2)CC1 (centres undefined) | inconclusive: 18.4 µM [falling, single point]
36 | CS(=O)(=O)c1ccc(C(=O)OCc2nnc(-c3ccccc3)o2)cc1[N+](=O)[O-] | inconclusive: 29.1 µM [falling, single point]
37 | C=CCc1cccc2cc(C(=O)NC3CCCCC3)c(=O)oc12 | inconclusive: 0.0046 µM [activator, full curve, poor fit]
38 | Cc1c(C(=O)NCc2ccc3c(c2)OCO3)sc2nc(-c3ccc(F)cc3)cn12 | inconclusive: 9.2 µM [falling, partial curve]
39 | Cc1ccc(-c2nc(CN3CCN(C(=O)C4CCCO4)CC3)cs2)cc1 (centres undefined) | inconclusive: 23.1 µM [falling, single point]
40 | Cn1nccc1C(=O)N(CCN1CCCCC1)CC1CCCN(C2CCCC2)C1 (centres undefined) | inconclusive: 29.1 µM [activator, single point]
41 | COc1cccc(C(=O)NCC(c2ccc3c(c2)OCO3)N2CCN(c3ccc(F)cc3)CC2)c1 (centres undefined) | inconclusive: 8.2 µM [falling, partial curve]
42 | Fc1ccccc1C1c2cccn2CCN1C(=S)Nc1ccc(Br)cc1 (centres undefined) | inconclusive: 29.1 µM [falling, single point]
43 | Cc1ccc(C(=O)Oc2oc(-c3ccco3)nc2C=Nc2ccc(Cl)cc2)cc1 | inconclusive: 0.517 µM [activator, full curve, poor fit]
44 | O=C(Nc1cccc(Cl)c1)N1CCC(CO)(CCOc2ccccc2)CC1 | inconclusive: 1.46 µM [falling, full curve, poor fit]

Laid out differently: results already given.
Row,Structure (SMILES),Potency
28,CCn1nc(C(=O)Nc2nc3ccc(C)cc3s2)c2ccccc2c1=O,"inconclusive: 16.4 µM [activator, partial curve]"
30,O=C1COc2ccc(S(=O)(=O)N3CCN(c4ccccc4F)CC3)cc2N1,"inconclusive: 20.6 µM [falling, partial curve, poor fit]"

Carrying on:

Row | Structure (SMILES) | Potency
45 | COc1ccc(C2=Nn3c(nnc3-c3ccccc3OC)SC2)cc1OC1CCOC1 (centres undefined) | inconclusive: 18.4 µM [falling, partial curve]
46 | O=C(NCCc1ccccc1)c1ccc(CSc2nc3ccncc3n2Cc2cccc(F)c2)cc1 | inconclusive: 29.1 µM [falling, single point]
47 | Cc1ccc(S(=O)(=O)NCC(=O)OCC(=O)N(Cc2ccccc2)C(C)(C)C)cc1 | inactive
48 | CC1CCCN(Cc2c(O)ccc3c(=O)c(-c4ccc(Cl)cc4)coc23)C1 (centres undefined) | inconclusive: 8.2 µM [activator, partial curve, poor fit]
49 | CCc1ccc(OCC(=O)Nc2nnc(-c3ccco3)s2)cc1 | inconclusive: 2.91 µM [activator, partial curve, poor fit]
50 | COc1cc2[nH]c(=S)nc(NCc3ccccc3)c2cc1OC | inconclusive: 29.1 µM [falling, partial curve, poor fit]
51 | CN(C)c1ccc(N=Nc2cccc(F)c2)cc1 | inconclusive: 18.4 µM [activator, partial curve]
52 | COc1ccc(N(CC(=O)Nc2ccc(C)cc2C)S(=O)(=O)c2ccccc2[N+](=O)[O-])c(OC)c1 | inconclusive: 6.51 µM [falling, full curve]
53 | CCC1CN(C(=O)Nc2ccccc2C(F)(F)F)c2ccccc2O1 (centres undefined) | inconclusive: 29.1 µM [falling, single point]
54 | O=C1CC(N2CCN(c3ccccc3)CC2)C(=O)N1Cc1ccc(Cl)cc1 (centres undefined) | inconclusive: 5.17 µM [falling, single point]
55 | COc1ccc(C(=O)Nc2cc(-c3nn4c(C)nnc4s3)ccc2C)cc1 | inconclusive: 23.1 µM [falling, single point]
56 | CCOc1ccccc1C1C(C(N)=O)=C(C)Nc2nc(-c3ccccc3Cl)nn21 (centres undefined) | inconclusive: 4.61 µM [falling, partial curve, poor fit]
57 | O=C(C1CCN(c2ccc(N3CCOCC3)nn2)CC1)N1CCN(c2ccc(F)cc2)CC1 | inconclusive: 1.84 µM [activator, partial curve, poor fit]
58 | Cc1nc2ccccc2cc1C(=O)NCc1ccc(F)cc1 | inconclusive: 18.4 µM [falling, partial curve, poor fit]
59 | COC(=O)NC(NC(=S)Nc1ccc([N+](=O)[O-])cc1)C(Cl)(Cl)Cl (centres undefined) | inconclusive: 29.1 µM [falling, single point]
60 | Cc1ccc2c(CN(C)Cc3cccc(F)c3)cc(=O)oc2c1C | inconclusive: 25.9 µM [activator, single point]
61 | COc1ccc(N2CCN(c3ccc(N4C(=O)CC(C)C4=O)cc3[N+](=O)[O-])CC2)cc1 (centres undefined) | inactive
62 | S=C(NC1CCCCC1)N1CCN(Cc2ccccc2Cl)CC1 | inconclusive: 32.6 µM [falling, single point]
63 | O=C(CSc1nnnn1C1CC2C=CC1C2)Nc1ccc(C(=O)O)cc1 (centres undefined) | inconclusive: 23.1 µM [activator, single point]
64 | CCOc1cccc(C(=O)Nc2nnc(S(=O)(=O)N(C)c3ccc(C)cc3)s2)c1 | inconclusive: 14.6 µM [activator, single point]
